{"sequences": {"note": "Protein sequences, listed by entry. Tags and fused reporters are not part of them.", "UniProt Q6WKZ8": "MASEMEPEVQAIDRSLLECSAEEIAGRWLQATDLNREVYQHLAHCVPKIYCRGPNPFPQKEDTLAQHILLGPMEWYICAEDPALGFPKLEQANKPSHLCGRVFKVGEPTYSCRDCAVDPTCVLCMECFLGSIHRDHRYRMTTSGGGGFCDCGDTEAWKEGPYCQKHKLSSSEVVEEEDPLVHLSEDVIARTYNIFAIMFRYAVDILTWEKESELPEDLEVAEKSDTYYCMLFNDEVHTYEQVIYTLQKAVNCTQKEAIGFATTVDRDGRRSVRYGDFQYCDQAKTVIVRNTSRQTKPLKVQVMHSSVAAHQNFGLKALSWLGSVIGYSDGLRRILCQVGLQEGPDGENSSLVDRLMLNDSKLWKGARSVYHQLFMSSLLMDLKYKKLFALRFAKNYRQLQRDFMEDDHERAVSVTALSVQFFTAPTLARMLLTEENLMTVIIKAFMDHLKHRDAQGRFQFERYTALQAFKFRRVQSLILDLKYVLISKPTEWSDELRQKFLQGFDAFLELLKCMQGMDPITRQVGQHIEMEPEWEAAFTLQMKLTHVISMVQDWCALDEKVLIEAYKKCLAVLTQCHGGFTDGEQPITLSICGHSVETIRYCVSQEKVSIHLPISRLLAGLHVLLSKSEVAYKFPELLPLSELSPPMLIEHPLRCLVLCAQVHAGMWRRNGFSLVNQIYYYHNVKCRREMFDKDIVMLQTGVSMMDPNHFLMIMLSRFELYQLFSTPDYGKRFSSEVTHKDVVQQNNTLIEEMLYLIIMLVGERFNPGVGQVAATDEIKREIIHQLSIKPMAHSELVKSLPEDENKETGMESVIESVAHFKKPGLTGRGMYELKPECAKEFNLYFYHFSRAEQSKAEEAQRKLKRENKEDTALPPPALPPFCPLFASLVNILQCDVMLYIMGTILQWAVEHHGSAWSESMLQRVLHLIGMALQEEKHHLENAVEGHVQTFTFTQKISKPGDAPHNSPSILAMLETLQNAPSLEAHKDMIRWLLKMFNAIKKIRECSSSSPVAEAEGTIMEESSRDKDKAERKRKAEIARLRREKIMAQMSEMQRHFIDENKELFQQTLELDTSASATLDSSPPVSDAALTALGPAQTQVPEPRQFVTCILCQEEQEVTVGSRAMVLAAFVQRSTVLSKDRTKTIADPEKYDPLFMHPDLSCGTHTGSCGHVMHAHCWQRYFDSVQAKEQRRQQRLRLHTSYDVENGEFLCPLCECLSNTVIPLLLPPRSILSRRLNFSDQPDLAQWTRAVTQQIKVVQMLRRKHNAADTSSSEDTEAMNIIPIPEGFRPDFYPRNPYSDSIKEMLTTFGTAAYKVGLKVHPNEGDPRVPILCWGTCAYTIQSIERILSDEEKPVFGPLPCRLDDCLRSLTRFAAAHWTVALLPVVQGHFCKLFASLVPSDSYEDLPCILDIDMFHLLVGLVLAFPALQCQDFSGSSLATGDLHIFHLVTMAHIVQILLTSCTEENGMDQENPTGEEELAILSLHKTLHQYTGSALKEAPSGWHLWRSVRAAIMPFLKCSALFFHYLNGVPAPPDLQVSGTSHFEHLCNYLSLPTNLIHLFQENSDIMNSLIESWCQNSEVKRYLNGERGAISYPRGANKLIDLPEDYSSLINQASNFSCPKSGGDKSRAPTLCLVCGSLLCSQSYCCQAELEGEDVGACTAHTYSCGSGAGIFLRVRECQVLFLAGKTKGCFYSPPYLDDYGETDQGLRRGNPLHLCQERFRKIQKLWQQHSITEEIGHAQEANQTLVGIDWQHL"}, "source": "paper PMC5570191", "molecular_target": "T1, mouse TEX19.1-YFP (stably expressed in mouse ESCs) (mouse) (UniProt Q99MV2)", "T1 sequence": "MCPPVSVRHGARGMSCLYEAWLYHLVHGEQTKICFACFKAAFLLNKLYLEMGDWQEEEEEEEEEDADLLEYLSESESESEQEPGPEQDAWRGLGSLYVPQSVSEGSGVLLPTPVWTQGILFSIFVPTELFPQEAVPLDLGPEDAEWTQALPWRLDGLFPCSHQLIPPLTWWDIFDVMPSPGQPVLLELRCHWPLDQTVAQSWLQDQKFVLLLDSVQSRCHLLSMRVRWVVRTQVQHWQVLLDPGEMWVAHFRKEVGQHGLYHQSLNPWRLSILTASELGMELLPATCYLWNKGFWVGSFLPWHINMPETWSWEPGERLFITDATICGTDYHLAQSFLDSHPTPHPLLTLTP", "assay": "affinity purification with mass spectrometry; GFP-Trap agarose IP from cytoplasmic extracts of mouse ESCs stably expressing TEX19.1-YFP or YFP, 90 min at 4°C; colloidal blue gel, in-gel trypsin digestion, MALDI TOF/TOF", "note": "These are yes or no findings as the source states them, for the method shown. Binding seen in cells or lysates may run through a third protein. A yes stands for co-enrichment or nearness to the bait. Other partners may have been found. Where a sequence is shown, tags or fusion partners need not be part of it."}
{"substance": "endogenous mouse UBR2 (from UniProt Q6WKZ8 1-1755) (enzyme)", "values": [{"measurement": "binding", "value": "binds"}]}
